Values are relative to the signal before dosing, not to a vehicle control; the signal also falls without drug.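 Labels refer to human fibroblasts, largely primary: uterine (C12385, HUF), lung (H6013), bone (Hs27A), adrenal (HADF), skin (WS1), plus mammary HMF and breast cancer-associated Hs343T. Cancer lines are basal-like or mesenchymal-like triple-negative breast cancer. The paper counts as hits responses shifting over 3x the replicate standard deviation. The tissue of the other fibroblasts is not given here.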
Test system: HCC1143
Assay: relative JC-1 red fluorescence (viability) vs pre-drug, coculture with fibroblast (fraction); higher = more viable cancer cells
Details: 100 µM
Method: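 JC-1 labelled TNBC cells cocultured 1:1 (1,500 cells each) with CellTrace Violet stained primary or stromal fibroblasts in 384-well plates in FluoroBrite medium, treated with one of 42 anticancer drugs at 0.1, 1, 10 or 100 uM. JC-1 red fluorescence (mitochondrial integrity in cancer cells only) was read by plate reader every 8 h for 72 h. Values are normalised to each well's pre-drug value. The stock of one drug was tenfold lower, so its dose labels may be too high.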

CO[C@H]1C[C@@H]2CC[C@@H](C)[C@@](O)(O2)C(=O)C(=O)N2CCCC[C@H]2C(=O)O[C@H]([C@H](C)C[C@@H]2CC[C@@H](OCCO)[C@H](OC)C2)CC(=O)[C@H](C)/C=C(\C)[C@@H](O)[C@@H](OC)C(=O)[C@H](C)C[C@H](C)/C=C/C=C/C=C/1C [Everolimus]
relative JC-1 red fluorescence
Details	8 h	16 h	24 h	32 h	40 h	48 h	56 h	64 h	72 h
coculture fibroblast: C12385	0.689	0.585	0.458	0.312	0.227	0.185	0.154	0.156	0.164
coculture fibroblast: H6013	0.6948	0.6767	0.557	0.49	0.391	0.353	0.317	0.316	0.265
coculture fibroblast: H6019	0.863	0.865	0.805	0.607	0.484	0.414	0.342	0.306	0.32
coculture fibroblast: H6076	0.65	0.73	0.397	0.329	0.244	0.26	0.264	0.264	0.29
coculture fibroblast: H6231	0.635	0.796	0.834	0.721	0.669	0.667	0.627	0.59	0.571
coculture fibroblast: HADF	0.6384	0.603	0.541	0.447	0.307	0.26	0.24	0.218	0.176
coculture fibroblast: HCFa	0.736	0.739	0.655	0.574	0.449	0.398	0.365	0.357	0.311
coculture fibroblast: HCPF	0.685	0.814	0.779	0.565	0.533	0.497	0.439	0.398	0.394
coculture fibroblast: HHSteC	0.697	0.646	0.516	0.441	0.366	0.376	0.387	0.399	0.336
coculture fibroblast: HMF	0.674	0.832	0.452	0.317	0.217	0.219	0.222	0.227	0.236
coculture fibroblast: HPFa	0.801	0.702	0.502	0.457	0.327	0.3039	0.284	0.309	0.319
coculture fibroblast: HUF	0.829	0.787	0.713	0.646	0.638	0.606	0.568	0.526	0.482
coculture fibroblast: Hs5	0.651	0.551	0.425	0.411	0.341	0.361	0.373	0.367	0.39
coculture fibroblast: Hs27A	0.635	0.666	0.656	0.701	0.5242	0.494	0.426	0.38	0.319
coculture fibroblast: Hs343T	0.655	0.776	0.465	0.392	0.283	0.298	0.305	0.316	0.327
coculture fibroblast: WS1	0.718	0.651	0.563	0.385	0.293	0.248	0.211	0.222	0.24
